Test: peptide synthesis
Settings: whole synthesis

## 5- and 6-carboxyfluorescein-Lys(GABA*-Phe-Trp-DTrp-Lys-Thr-Phe-GlyC3*)-NH2
  final purity (method not given): 98%
  isolated yield: 0.8%

Reference: US7700717B2 (DeveloGen Israel Ltd., priority 2002, dated 2010)
